Laboratory results reported in the supplement of paper PMC8728848.
The list shows a part of the results.

Legend:
Experiment in all cases: glycan array binding signal (z-score within array); higher = stronger binding
Conditions in all cases: glycan notation: IUPAC condensed, linker removed
[1] = target: Neu5Ac(a2-6)GlcNAc(b1-4)GlcNAc(b1-4)GlcNAc
Procedure, shortened: (§1)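 Columns mapping to the same glycan were averaged after glycan names were converted to IUPAC-condensed notation. The data come from 3228 arrays in the Consortium for Functional Glycomics database, limited to those with an available protein sequence. Binding is reported as a within-array Z-score averaged across arrays of one protein sequence and across linkers.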

[2] = target: Neu5Ac(a2-8)Neu5Ac
Procedure, shortened: as §1

[3] = target: Neu5Ac(a2-8)Neu5Ac(a2-3)Gal(b1-3)GalNAc(b1-4)[Neu5Ac(a2-3)]Gal(b1-4)Glc
Procedure, shortened: as §1

[4] = target: Neu5Ac(a2-8)Neu5Ac(a2-3)Gal(b1-3)GalNAc(b1-4)[Neu5Ac(a2-8)Neu5Ac(a2-3)]Gal(b1-4)Glc
Procedure, shortened: as §1

[5] = target: Neu5Ac(a2-8)Neu5Ac(a2-3)Gal(b1-4)Glc
Procedure, shortened: as §1

[6] = target: Neu5Ac(a2-8)Neu5Ac(a2-3)Gal(b1-4)GlcNAc
Procedure, shortened: as §1

[7] = target: Neu5Ac(a2-8)Neu5Ac(a2-3)[Gal(b1-3)GalNAc(b1-4)]Gal(b1-4)Glc
Procedure, shortened: as §1

[8] = target: Neu5Ac(a2-8)Neu5Ac(a2-3)[GalNAc(b1-4)]Gal(b1-4)Glc
Procedure, shortened: as §1

[9] = target: Neu5Ac(a2-8)Neu5Ac(a2-8)Neu5Ac
Procedure, shortened: as §1

[10] = target: Neu5Ac(a2-8)Neu5Ac(a2-8)Neu5Ac(a2-3)Gal(b1-4)Glc
Procedure, shortened: as §1

[11] = target: Neu5Ac(a2-8)Neu5Ac(a2-8)Neu5Ac(a2-3)[Gal(b1-3)GalNAc(b1-4)]Gal(b1-4)Glc
Procedure, shortened: as §1

[12] = target: Neu5Ac(a2-8)Neu5Ac(a2-8)Neu5Ac(a2-3)[GalNAc(b1-4)]Gal(b1-4)Glc
Procedure, shortened: as §1

[13] = target: Neu5Ac(a2-8)Neu5Ac(a2-8)Neu5Ac(a2-8)Neu5Ac(a2-3)[GalNAc(b1-4)]Gal(b1-4)Glc
Procedure, shortened: as §1

[14] = target: Neu5Ac(a2-8)Neu5Gc(a2-3)Gal(b1-4)GlcNAc
Procedure, shortened: as §1

[15] = target: Neu5Ac(b2-6)Gal(b1-4)GlcNAc
Procedure, shortened: as §1

[16] = target: Neu5Ac(b2-6)GalNAc
Procedure, shortened: as §1

[17] = target: Neu5Ac9Ac(a2-3)Gal(b1-3)GlcNAc
Procedure, shortened: as §1

[18] = target: Neu5Ac9Ac(a2-3)Gal(b1-4)GlcNAc
Procedure, shortened: as §1

[19] = target: Neu5Ac9Ac(a2-6)Gal(b1-4)GlcNAc
Procedure, shortened: as §1

[20] = target: Neu5Gc(a2-3)Gal(b1-3)GlcNAc
Procedure, shortened: as §1

[21] = target: Neu5Gc(a2-3)Gal(b1-3)[Fuc(a1-4)]GlcNAc
Procedure, shortened: as §1

[22] = target: Neu5Gc(a2-3)Gal(b1-4)Glc
Procedure, shortened: as §1

[23] = target: Neu5Gc(a2-3)Gal(b1-4)GlcNAc
Procedure, shortened: as §1

[24] = target: Neu5Gc(a2-3)Gal(b1-4)GlcNAc(b1-3)Gal(b1-4)GlcNAc(b1-2)Man(a1-3)[Neu5Gc(a2-3)Gal(b1-4)GlcNAc(b1-3)Gal(b1-4)GlcNAc(b1-2)Man(a1-6)]Man(b1-4)GlcNAc(b1-4)GlcNAc
Procedure, shortened: as §1

[25] = target: Neu5Gc(a2-3)Gal(b1-4)[Fuc(a1-3)]GlcNAc
Procedure, shortened: as §1

[26] = target: Neu5Gc(a2-6)Gal(b1-4)GlcNAc
Procedure, shortened: as §1

[27] = target: Neu5Gc(a2-6)GalNAc
Procedure, shortened: as §1

[28] = target: Neu5Gc(a2-8)Neu5Ac(a2-3)Gal(b1-4)GlcNAc
Procedure, shortened: as §1

[29] = target: Neu5Gc(a2-8)Neu5Gc(a2-3)Gal(b1-4)GlcNAc
Procedure, shortened: as §1

[30] = target: Neu5Gc(a2-8)Neu5Gc(a2-3)Gal(b1-4)GlcNAc(b1-3)Gal(b1-4)GlcNAc
Procedure, shortened: as §1

[31] = target: Neu5Gc(a2-8)Neu5Gc(a2-6)Gal(b1-4)GlcNAc
Procedure, shortened: as §1

[32] = target: Neu5Gc(b2-6)Gal(b1-4)GlcNAc
Procedure, shortened: as §1

B1: Epa8 (Candida glabrata) (protein)
chain: MGSSHHHHHHSSGLVPRGSHMASSRALSDYPLGCSPLLGTKLTPGLSMELYEYPLDNHGIGPHCWDPAYLNPEYPRTGFESHKLIGTAQNVMSLNFEHRTQDCHVEFSNLPASFNFPDQITLTNFTMLLYGYFKPKESGRYRFHMEADDLLLMNLGAGNAFDCCAHEATRNNLGDYIAYDIWAGTRKDVEVFLEKEVFYPLRLFFNNRDGRAALDFSYYLNGATEPGTDIPELLFSLPDGESCPAYI
**Q.** For B1, which “glycan array binding signal (z-score)” value [1] is on record?
**A.** The value was -0.271.

**Q.** And the “glycan array binding signal (z-score)” value [2]?
**A.** Its value is -0.558.

**Q.** And the “glycan array binding signal (z-score)” value [3]?
**A.** Its value is -0.319.

**Q.** And the “glycan array binding signal (z-score)” value [4]?
**A.** The value was 0.256.

**Q.** What about the “glycan array binding signal (z-score)” value [5] of the same binder?
**A.** Its value is -0.619.

**Q.** And the “glycan array binding signal (z-score)” value [6]?
**A.** The value was -0.961.

**Q.** And the “glycan array binding signal (z-score)” value [7]?
**A.** The value was -0.337.

**Q.** What about the “glycan array binding signal (z-score)” value [8] of the same binder?
**A.** Its value is 1.71.

**Q.** And the “glycan array binding signal (z-score)” value [9]?
**A.** The value was -0.037.

**Q.** And the “glycan array binding signal (z-score)” value [10]?
**A.** Its value is -0.563.

**Q.** What about the “glycan array binding signal (z-score)” value [11] of the same binder?
**A.** Its value is 0.84.

**Q.** What about the “glycan array binding signal (z-score)” value [12] of the same binder?
**A.** The value was 1.07.

**Q.** What about the “glycan array binding signal (z-score)” value [13] of the same binder?
**A.** Its value is -0.342.

**Q.** What about the “glycan array binding signal (z-score)” value [14] of the same binder?
**A.** Its value is -0.642.

**Q.** And the “glycan array binding signal (z-score)” value [15]?
**A.** The value was 0.817.

**Q.** And the “glycan array binding signal (z-score)” value [16]?
**A.** The value was -0.423.

**Q.** What about the “glycan array binding signal (z-score)” value [17] of the same binder?
**A.** Its value is -0.482.

**Q.** And the “glycan array binding signal (z-score)” value [18]?
**A.** Its value is -0.308.

**Q.** What about the “glycan array binding signal (z-score)” value [19] of the same binder?
**A.** The value was -0.4.

**Q.** What about the “glycan array binding signal (z-score)” value [20] of the same binder?
**A.** The value was -0.539.

**Q.** What about the “glycan array binding signal (z-score)” value [21] of the same binder?
**A.** The value was -0.218.

**Q.** And the “glycan array binding signal (z-score)” value [22]?
**A.** The value was 0.498.

**Q.** And the “glycan array binding signal (z-score)” value [23]?
**A.** Its value is -0.658.

**Q.** And the “glycan array binding signal (z-score)” value [24]?
**A.** Its value is -0.274.

**Q.** What about the “glycan array binding signal (z-score)” value [25] of the same binder?
**A.** The value was -0.363.

**Q.** What about the “glycan array binding signal (z-score)” value [26] of the same binder?
**A.** The value was -0.202.

**Q.** What about the “glycan array binding signal (z-score)” value [27] of the same binder?
**A.** The value was -0.49.

**Q.** What about the “glycan array binding signal (z-score)” value [28] of the same binder?
**A.** Its value is -0.528.

**Q.** What about the “glycan array binding signal (z-score)” value [29] of the same binder?
**A.** The value was -0.127.

**Q.** And the “glycan array binding signal (z-score)” value [30]?
**A.** The value was -0.607.

**Q.** And the “glycan array binding signal (z-score)” value [31]?
**A.** The value was -0.62.

**Q.** What about the “glycan array binding signal (z-score)” value [32] of the same binder?
**A.** The value was -0.258.
